Chains of the proteins cited; added tags and fusions are not shown.
UniProt Q5AGW7: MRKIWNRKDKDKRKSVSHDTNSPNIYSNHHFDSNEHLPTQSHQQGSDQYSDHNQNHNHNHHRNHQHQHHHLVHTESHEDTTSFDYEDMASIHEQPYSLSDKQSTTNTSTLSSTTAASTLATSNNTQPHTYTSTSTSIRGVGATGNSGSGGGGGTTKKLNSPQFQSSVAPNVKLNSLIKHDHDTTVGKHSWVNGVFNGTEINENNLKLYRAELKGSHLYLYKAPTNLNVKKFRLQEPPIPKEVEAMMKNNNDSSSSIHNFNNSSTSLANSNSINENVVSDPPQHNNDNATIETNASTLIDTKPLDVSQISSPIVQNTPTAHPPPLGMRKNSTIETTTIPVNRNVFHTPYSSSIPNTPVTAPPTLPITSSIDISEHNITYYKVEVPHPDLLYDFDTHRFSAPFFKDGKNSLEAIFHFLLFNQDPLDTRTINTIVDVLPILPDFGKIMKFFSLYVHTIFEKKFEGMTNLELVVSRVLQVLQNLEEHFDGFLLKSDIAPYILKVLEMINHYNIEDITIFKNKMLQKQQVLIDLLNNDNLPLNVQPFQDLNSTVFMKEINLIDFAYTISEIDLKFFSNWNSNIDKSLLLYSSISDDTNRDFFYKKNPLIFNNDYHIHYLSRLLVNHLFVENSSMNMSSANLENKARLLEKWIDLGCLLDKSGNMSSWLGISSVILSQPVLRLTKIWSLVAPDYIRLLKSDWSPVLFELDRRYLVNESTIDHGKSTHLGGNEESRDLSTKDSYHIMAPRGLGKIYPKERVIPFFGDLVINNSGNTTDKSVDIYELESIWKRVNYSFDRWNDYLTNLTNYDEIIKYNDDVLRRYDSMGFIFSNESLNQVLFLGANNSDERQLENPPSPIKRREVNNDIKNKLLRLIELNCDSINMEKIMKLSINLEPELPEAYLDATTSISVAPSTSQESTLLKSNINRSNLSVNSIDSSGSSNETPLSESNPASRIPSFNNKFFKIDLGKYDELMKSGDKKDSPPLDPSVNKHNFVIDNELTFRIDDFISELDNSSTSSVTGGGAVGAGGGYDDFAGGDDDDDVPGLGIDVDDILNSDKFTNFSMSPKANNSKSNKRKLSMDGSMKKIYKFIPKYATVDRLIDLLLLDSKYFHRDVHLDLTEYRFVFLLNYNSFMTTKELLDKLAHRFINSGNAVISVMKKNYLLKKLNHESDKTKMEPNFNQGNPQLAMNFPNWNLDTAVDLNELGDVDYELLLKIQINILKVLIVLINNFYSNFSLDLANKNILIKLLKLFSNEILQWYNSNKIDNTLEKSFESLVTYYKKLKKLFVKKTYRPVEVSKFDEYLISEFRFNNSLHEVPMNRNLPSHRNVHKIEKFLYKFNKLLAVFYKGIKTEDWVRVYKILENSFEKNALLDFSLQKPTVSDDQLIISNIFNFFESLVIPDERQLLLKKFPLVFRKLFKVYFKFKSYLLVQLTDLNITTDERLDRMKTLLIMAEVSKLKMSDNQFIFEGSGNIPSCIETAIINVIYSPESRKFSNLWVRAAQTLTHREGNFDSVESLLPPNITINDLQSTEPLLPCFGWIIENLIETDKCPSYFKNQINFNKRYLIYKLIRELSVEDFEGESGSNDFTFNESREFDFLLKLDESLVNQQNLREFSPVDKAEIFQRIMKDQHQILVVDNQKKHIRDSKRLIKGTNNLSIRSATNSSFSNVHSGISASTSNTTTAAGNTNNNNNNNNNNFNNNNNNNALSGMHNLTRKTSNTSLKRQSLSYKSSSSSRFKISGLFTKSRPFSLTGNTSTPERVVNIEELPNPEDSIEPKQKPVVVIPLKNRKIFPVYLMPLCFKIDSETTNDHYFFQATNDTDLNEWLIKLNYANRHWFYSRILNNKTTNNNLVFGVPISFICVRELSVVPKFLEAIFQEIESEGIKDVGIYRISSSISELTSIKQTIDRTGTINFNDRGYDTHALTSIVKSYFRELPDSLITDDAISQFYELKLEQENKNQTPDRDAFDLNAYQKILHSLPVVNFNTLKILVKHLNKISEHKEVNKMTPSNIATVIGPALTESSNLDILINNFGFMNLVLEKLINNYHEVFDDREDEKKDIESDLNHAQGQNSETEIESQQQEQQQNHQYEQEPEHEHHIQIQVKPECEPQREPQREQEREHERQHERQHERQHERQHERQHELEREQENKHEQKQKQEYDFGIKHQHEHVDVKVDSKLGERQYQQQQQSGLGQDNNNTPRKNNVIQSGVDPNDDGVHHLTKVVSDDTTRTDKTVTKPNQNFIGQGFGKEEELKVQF

According to paper PMC11796410:

Experiments:
Myc-Sdd3 (C. albicans) = Myc-Sdd3 (C. albicans) (UniProt Q59R27); assay: co-IP
Bem2-HA (C. albicans) = Bem2-HA (C. albicans) (UniProt Q5AGW7); assay: co-IP

## Bem2-HA (from UniProt Q5AGW7 1-2252)
Myc-Sdd3 (C. albicans)
  binding: binds

## Myc-Sdd3 (from UniProt Q59R27)
Bem2-HA (C. albicans)
  binding: binds

Results are given in words; binding and its absence hold for the method and conditions named. Binding seen in cells or lysates may run through a third protein. Binding calls can cover weak binding; strength is not graded here.
